Taken from: PubChem BioAssay AID1671195 (Yale University, 2021)
Shown is one part, drawn at random, of about 22,000 deposited reagents. In the full data, about 1,510 (6.9%) were called active. 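Active includes knockdowns raising or lowering LDL uptake; positive z-scores mean more uptake, negative mean less.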 Entries without a mark were called inactive. The numbers tell different reagents against one gene apart.

- Screen: 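Genes whose knockdown alters LDL uptake in liver cancer cells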 (primary screen)
- Cells: human Huh7 hepatoma cells
- Knock-down reagent: siRNA pool against human genes, 18 nM
- Duration: about 2 to 2.5 days of knockdown, then 8 h LDL uptake
- Challenge: DiI-labelled LDL at 30 µg/ml for 8 h, in lipoprotein-deficient serum medium
- Measurement: 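Fluorescent LDL signal imaged in cells, scaled to the plate median, robust z-score for each replicate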
- Reading the numbers: robust z-score: higher = more LDL uptake after knockdown
- Call rule: 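a gene counts as active if at least two replicate z-scores exceed ±2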

| target gene | pool no. | robust z-score, replicate 1 | robust z-score, replicate 2 | robust z-score, replicate 3 |
| --- | --- | --- | --- | --- |
| GALK1 (galactokinase 1) | 1 | 1.57 | 1.37 | 0.625 |
| LOC442250 (retired record) | 1 | 0.857 | 0.613 | 0.661 |
| SYAP1 (synapse associated protein 1) | 1 | 0.138 | -0.191 | 0.912 |
| HMGB3P30 (high mobility group box 3 pseudogene 30) | 1 | -0.223 | -0.215 | -0.283 |
| MRPL46 (mitochondrial ribosomal protein L46) | 1 | 1 | 1.06 | 0.0519 |
| WDR20 (WD repeat domain 20) | 1 | -0.197 | -0.74 | -0.285 |
| TYMS (thymidylate synthetase) | 1 | -0.973 | -0.518 | -0.871 |
| EIF1B-AS1 (EIF1B antisense RNA 1) | 1 | 0.948 | 1.96 | 1.71 |
| CZIB (CXXC motif containing zinc binding protein) | 1 | -0.806 | -0.838 | -1.77 |
| PRPF38B (pre-mRNA processing factor 38B) | 1 | -0.669 | 0.513 | -0.384 |
| CDC42EP4 (CDC42 effector protein 4) | 1 | -1.22 | -1.46 | -1.23 |
| LOC387992 (retired record) | 1 | -1.04 | -0.709 | -0.722 |
| MLNR (motilin receptor) | 1 | -0.269 | 0.405 | -0.185 |
| NKX2-5 (NK2 homeobox 5) | 1 | 1.03 | 0.378 | 1.83 |
| LOC102723968 | 1 | -1.14 | -1.12 | -0.727 |
| PLA2G12A (phospholipase A2 group XIIA) | 1 | -0.263 | -0.755 | -1.24 |
| ZNF84 (zinc finger protein 84) | 1 | 5.03 (active) | 4.87 | 2.61 |
| H4C6 (H4 clustered histone 6) | 1 | -0.000865 | 0.127 | -0.11 |
| FGFBP1 (fibroblast growth factor binding protein 1) | 1 | -0.952 | -1.85 | -0.859 |
| STK32C (serine/threonine kinase 32C) | 1 | -0.559 | -0.591 | -1.13 |
| LY6G6F (lymphocyte antigen 6 family member G6F) | 1 | 0.802 | 1.11 | 1.3 |
| SFMBT2 (Scm like with four mbt domains 2) | 1 | -0.258 | -0.607 | -0.805 |
| ZNF446 (zinc finger protein 446) | 1 | -0.349 | -0.278 | -0.227 |
| SAMD13 (sterile alpha motif domain containing 13) | 1 | -0.722 | 0.224 | -0.769 |
| ITGA8 (integrin subunit alpha 8) | 1 | -0.264 | -1.64 | -1.55 |
| FAM234B (family with sequence similarity 234 member B) | 1 | 0.178 | 1.06 | 0.257 |
| USP7 (ubiquitin specific peptidase 7) | 1 | -0.786 | -0.644 | -0.331 |
| LMCD1 (LIM and cysteine rich domains 1) | 1 | -2.44 | -0.338 | -0.73 |
| CARD17P (caspase recruitment domain family member 17, pseudogene) | 1 | -1.71 (active) | -2.21 | -1.8 |
| CSPG4P5 (chondroitin sulfate proteoglycan 4 pseudogene 5) | 1 | -0.891 | -2.25 | -1.62 |
| LOC440114 (retired record) | 1 | -1.06 | -0.792 | -1.39 |
| BLNK (B cell linker) | 1 | 1.11 | 0.218 | 0.457 |
| TWNK (twinkle mtDNA helicase) | 1 | 0.32 | -0.0967 | -0.109 |
| HGF (hepatocyte growth factor) | 1 | 0.0333 | -0.317 | -0.372 |
| HP (haptoglobin) | 1 | 0.203 | 1.62 | -2.27 |
| CACNA1G (calcium voltage-gated channel subunit alpha1 G) | 1 | -1.58 | -1.62 | -1.87 |
| HIF1A (hypoxia inducible factor 1 subunit alpha) | 1 | 0.305 | 1.6 | 0.0455 |
| ATP6V1E2 (ATPase H+ transporting V1 subunit E2) | 1 | 0.452 | 0.0469 | -0.302 |
| ATP6V1E2 (ATPase H+ transporting V1 subunit E2) | 2 | -0.757 | -1.54 | -1.22 |
| MAK (male germ cell associated kinase) | 1 | 1.98 (active) | 1.04 | 2.8 |
| ST6GALNAC6 (ST6 N-acetylgalactosaminide alpha-2,6-sialyltransferase 6) | 1 | -1.09 | -1.18 | -1.01 |
| CSRP1 (cysteine and glycine rich protein 1) | 1 | -0.721 | -0.151 | -0.783 |
| VASN (vasorin) | 1 | -0.705 | -0.882 | -0.774 |
| SCAND3 (SCAN domain containing 3) | 1 | -0.402 | -1.65 | -1.18 |
| TCEAL1 (transcription elongation factor A like 1) | 1 | 1.07 | 1.73 | 1.77 |
| H2AP (H2A.P histone) | 1 | -1.09 | -0.149 | -0.721 |
| NOS1 (nitric oxide synthase 1) | 1 | -0.323 | 0.0298 | 0.171 |
| SPCS3 (signal peptidase complex subunit 3) | 1 | -1.49 | -1.27 | -1.4 |
| TMEM9 (transmembrane protein 9) | 1 | -0.27 | -0.0641 | -0.319 |
| SLC9A3-OT1 (SLC9A3 3' UTR overlapping transcript 1) | 1 | -0.329 | 0.529 | -0.472 |
| SAMD9L (sterile alpha motif domain containing 9 like) | 1 | -0.57 | -0.863 | -0.592 |
| FFAR4 (free fatty acid receptor 4) | 1 | -1.41 | -0.65 | -1.43 |
| LINC00588 (long independently transcribed non-coding RNA 588) | 1 | 1.62 | 1.73 | 0.24 |
| GLYR1 (glyoxylate reductase 1 homolog) | 1 | 0.278 | 0.0919 | 0.687 |
| ATP8A2 (ATPase phospholipid transporting 8A2) | 1 | 0.0238 | -0.139 | -0.123 |
| GCLM (glutamate-cysteine ligase modifier subunit) | 1 | -0.826 | 0.641 | 0.327 |
| DRC7 (dynein regulatory complex subunit 7) | 1 | 3.42 (active) | 4.81 | 3.68 |
| KIRREL3 (kirre like nephrin family adhesion molecule 3) | 1 | 0.0909 | -0.964 | 0.158 |
| RAB11FIP2 (RAB11 family interacting protein 2) | 1 | 0.313 | -0.737 | 0.41 |
| C4BPA (complement component 4 binding protein alpha) | 1 | 1.3 | 0.117 | 1.61 |
| PTPN23 (protein tyrosine phosphatase non-receptor type 23) | 1 | -0.415 | -0.418 | -0.81 |
| CSTL1 (cystatin like 1) | 1 | 0.624 | 0.453 | 0.558 |
| DDHD1 (DDHD domain containing 1) | 1 | -1.28 | -1.39 | -1.18 |
| BTLA (B and T lymphocyte associated) | 1 | -0.592 | 0.816 | -0.336 |
| LETM1 | 1 | 0.782 | 0.749 | 1.1 |
| RNF138 (ring finger protein 138) | 1 | 0.834 | 1.09 | 1.57 |
| AGAP3 (ArfGAP with GTPase domain, ankyrin repeat and PH domain 3) | 1 | 3.68 | 1.32 | 1.65 |
| PAK6 (p21 (RAC1) activated kinase 6) | 1 | -0.14 | 0.644 | 1.76 |
